Measured values published in patent US20180321243A1 (UNIVERSITY OF SASKATCHEWAN, published 2018).
These are yes or no findings as the source states them, for the method shown. Some entries that bind do so weakly or less than the wild type.

The chains behind the UniProt entries cited, without tags or fusion partners. Residues count along the entry.
UniProt O14672, residues 214-672: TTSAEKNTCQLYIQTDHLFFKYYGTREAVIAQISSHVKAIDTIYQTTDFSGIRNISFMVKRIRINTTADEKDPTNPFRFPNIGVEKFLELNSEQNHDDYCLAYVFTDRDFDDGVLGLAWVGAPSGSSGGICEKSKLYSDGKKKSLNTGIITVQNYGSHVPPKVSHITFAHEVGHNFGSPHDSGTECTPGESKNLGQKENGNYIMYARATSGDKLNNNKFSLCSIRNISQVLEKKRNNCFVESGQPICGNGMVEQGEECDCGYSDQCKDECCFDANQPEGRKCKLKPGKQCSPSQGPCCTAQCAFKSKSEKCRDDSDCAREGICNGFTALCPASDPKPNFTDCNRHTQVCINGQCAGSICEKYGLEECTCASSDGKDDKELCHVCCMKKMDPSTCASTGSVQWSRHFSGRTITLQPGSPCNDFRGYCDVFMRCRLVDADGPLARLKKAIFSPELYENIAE

What was measured:
[1] = molecular target: recombinant human ADAM10 (Biomatik, #RPU140010) (human) (UniProt O14672); assay: phage ELISA, plate-adsorbed ADAM10
[2] = molecular target: recombinant human ADAM10 (Biomatik, #RPU140010) (human) (UniProt O14672); assay: BLI, purified scFv, ADAM10 in solution
[3] = molecular target: recombinant human ADAM10 (Biomatik, #RPU140010) (human) (UniProt O14672); assay: biolayer interferometry, unlabeled scFv coupled to AR2G biosensor, ADAM10 in solution
[4] = molecular target: recombinant human ADAM10 (Biomatik, #RPU140010) (human) (UniProt O14672); assay: BLI epitope mapping, unlabeled scFv-B2 at 500 nM on ADAM10 held by biotin-scFv-B7 (FIG. 12B)
[5] = molecular target: recombinant human ADAM10 (Biomatik, #RPU140010) (human) (UniProt O14672); assay: biolayer interferometry, epitope mapping: unlabeled scFv-B2 (500 nM) on ADAM10 captured by biotin-scFv-B9
[6] = molecular target: recombinant human ADAM10 (Biomatik, #RPU140010) (human) (UniProt O14672); assay: biolayer interferometry, epitope mapping: unlabeled scFv-B2 (500 nM) on ADAM10 captured by biotin-scFv-B7, after a +B9 step
[7] = molecular target: recombinant human ADAM10 (Biomatik, #RPU140010) (human) (UniProt O14672); assay: BLI epitope mapping, unlabeled scFv-B7 at 500 nM on ADAM10 held by biotin-scFv-B2 (FIG. 12A)
[8] = molecular target: recombinant human ADAM10 (Biomatik, #RPU140010) (human) (UniProt O14672); assay: biolayer interferometry, epitope mapping: unlabeled scFv-B7 (500 nM) on ADAM10 captured by biotin-scFv-B2, after a +B9 step
[9] = molecular target: recombinant human ADAM10 (Biomatik, #RPU140010) (human) (UniProt O14672); assay: biolayer interferometry, epitope mapping: unlabeled scFv-B7 (500 nM) on ADAM10 captured by biotin-scFv-B9, after a +B2 step

Measured: binding

B1: scFv-B2 (scFv)
scFv: SDIQMTQSPSSLSASVGDRVTITCRASQGISNYLAWYQQKPGKAPKLLIYAASSLQSGVPSRFSGSRSGTDFTLTISSLQPEDFATYYCQQSYYLPLTFGQGTKVEIKGGGSGGGSGGGSGGGSEVQLVESGGGLVQPGGSLRLSCAASGFTFSSYGMHWVRQAPGKGLEWVAVISYDGSNKYYADSVKGRFTISRDNSKNTLYLQMNSLRAEDTAVYYCARWPAHFSHSHSSYYYYGFDVWGQGTLVTVSS
notes: Synthetic human scFv, order VL (IgKV1-16 framework) - (G3S)4 linker - VH (IgHV3-30 framework); Expressed in E. coli BL-21 and purified by protein L chromatography
not listed: [7] | [8] | [9]
binds: all other assays above

B2: scFv-B9 (scFv)
scFv: SDIQMTQSPSSLSASVGDRVTITCRASQGISNYLAWYQQKPGKAPKLLIYAASSLQSGVPSRFSGSRSGTDFTLTISSLQPEDFATYYCQQLYHPPLTFGQGTKVEIKGGGSGGGSGGGSGGGSEVQLVESGGGLVQPGGSLRLSCAASGFTFSSYGMHWVRQAPGKGLEWVAVISYDGSNKYYADSVKGRFTISRDNSKNTLYLQMNSLRAEDTAVYYCARYSPYHYSHSVSYYYYGFDVWGQGTLVTVSS
notes: as for B1
binds: [1] | [2] | [3]

B3: scFv-B7 (scFv)
scFv: SDIQMTQSPSSLSASVGDRVTITCRASQGISNYLAWYQQKPGKAPKLLIYAASSLQSGVPSRFSGSRSGTDFTLTISSLQPEDFATYYCQQVSSWPLTFGQGTKVEIKGGGSGGGSGGGSGGGSEVQLVESGGGLVQPGGSLRLSCAASGFTFSSYGMHWVRQAPGKGLEWVAVISYDGSNKYYADSVKGRFTISRDNSKNTLYLQMNSLRAEDTAVYYCARYPPHGFDYWGQGTLVTVSS
notes: as for B1
not listed: [4] | [5] | [6]
binds: all other assays above
